For six molecules, binding results are on record in article PMC12095548.

Amino acid sequences for entries named in this document (tags omitted). A change or cut given only in a name is not applied to a line headed by its entry. Residues count along the entry.
UniProt P25586: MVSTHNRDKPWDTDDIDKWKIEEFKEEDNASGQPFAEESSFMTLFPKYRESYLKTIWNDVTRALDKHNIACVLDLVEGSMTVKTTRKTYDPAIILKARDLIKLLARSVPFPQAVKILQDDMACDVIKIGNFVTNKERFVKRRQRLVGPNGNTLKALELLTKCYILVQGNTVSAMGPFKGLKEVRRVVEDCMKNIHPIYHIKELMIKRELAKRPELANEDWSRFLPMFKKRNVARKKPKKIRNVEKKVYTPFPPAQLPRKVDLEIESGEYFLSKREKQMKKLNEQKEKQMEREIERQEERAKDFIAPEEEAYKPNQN
Krr1ΔC3-FLAG (Saccharomyces cerevisiae (yeast)): residues 1-247 of P25586

Common to all, as to assay: co-sedimentation; FLAG eluates of the split-tag purifications on a linear 10–40% sucrose gradient (60 mM Tris-HCl pH 8.0, 50 mM NaCl, 2 mM MgCl2), 16 h at 129,300 × g, 4 °C; fractions by SDS-PAGE, MS and northern blot
Test [1] has as its target Krr1 (wild type, second bait of the split-tag purification) (Saccharomyces cerevisiae (yeast)) (UniProt P25586).
Test [2] deals with T1, protA-TEV-tagged Utp23 (Saccharomyces cerevisiae (yeast)) (UniProt Q12339).
T1 sequence: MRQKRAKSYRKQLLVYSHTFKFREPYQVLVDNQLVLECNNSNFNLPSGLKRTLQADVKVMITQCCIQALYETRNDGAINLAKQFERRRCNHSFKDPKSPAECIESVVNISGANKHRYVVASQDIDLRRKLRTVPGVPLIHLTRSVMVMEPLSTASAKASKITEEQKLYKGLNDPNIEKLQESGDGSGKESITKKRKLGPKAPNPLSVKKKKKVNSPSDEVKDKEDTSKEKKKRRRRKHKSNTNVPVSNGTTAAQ

Test [3] concerns the target Krr1ΔC3-FLAG (Saccharomyces cerevisiae (yeast)) (UniProt P25586).
In test [4] the target is T2, protA-TEV-tagged Utp23 (Saccharomyces cerevisiae (yeast)), Q12339.
T2 chain: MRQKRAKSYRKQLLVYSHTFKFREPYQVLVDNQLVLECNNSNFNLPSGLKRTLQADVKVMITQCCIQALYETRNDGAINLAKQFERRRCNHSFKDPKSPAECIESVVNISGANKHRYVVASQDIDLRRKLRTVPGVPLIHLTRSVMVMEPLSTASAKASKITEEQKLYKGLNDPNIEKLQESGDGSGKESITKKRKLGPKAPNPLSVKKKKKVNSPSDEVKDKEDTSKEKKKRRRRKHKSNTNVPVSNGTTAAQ
The note with it: remark: other sources report otherwise.

Results are given in words; binding and its absence hold for the method and conditions named. Binding seen in cells or lysates may run through a third protein. Some binding calls cover weakened binding; strength is not graded here. For some assays here: Tags and fused reporters may be left off the sequences shown.

B1: Nop9 (protein, UniProt P47077 1-666)
chain: MGKTKTRGRRHQDKQRKDEFEPSSNSAKEHIQQEESTYNDEAEIKETQPQMFFGVLDREELEYFKQAESTLQLDAFEAPEEKFQFVTSIIEEAKGKELKLVTSQITSKLMERVILECDETQLKDIFQSFNGVFFGLSCHKYASHVLETLFVRSAALVERELLTPSFDNNEKEGPYVTMENMFLFMLNELKPHLKTMMNHQYASHVLRLLILILSSKTLPNSTKANSTLRSKKSKIARKMIDIKDNDDFNKVYQTPESFKSELRDIITTLYKGFTNGAESRSDISQSTITKFREYSVDKVASPVIQLIIQVEGIFDRDRSFWRLVFNTADEKDPKEESFLEYLLSDPVGSHFLENVIGSARLKYVERLYRLYMKDRIVKLAKRDTTGAFVVRALLEHLKEKDVKQILDAVVPELSMLLNSNMDFGTAIINASNKQGGYLRDDVIAQLIQKYYPEKSDAKNILESCLLLSASTLGNTRDDWPTAEERRRSVFLEQLIDYDDKFLNITIDSMLALPEERLIQMCYHGVFSHVVEHVLQTTRVDIIKRKMLLNILSKESVNLACNVYGSHIMDKLWEFTAKLTLYKERIARALVLETEKVKNSIYGRQVWKNWKLELYVRKMWDWKKLIKEQEFEIFPNSKPLQPKPEKHSRERNNSKEGSAFKKQKHYR
As for B1, the binding entry in test [1] and in test [2] was “binds” each time.

B2: Nhp2 (protein, UniProt P32495 1-156)
chain: MGKDNKEHKESKESKTVDNYEARMPAVLPFAKPLASKKLNKKVLKTVKKASKAKNVKRGVKEVVKALRKGEKGLVVIAGDISPADVISHIPVLCEDHSVPYIFIPSKQDLGAAGATKRPTSVVFIVPGSNKKKDGKNKEEEYKESFNEVVKEVQAL
For B2, the binding result in test [1], in test [3] and in test [2] was “binds” throughout.

B3: Mrd1 (protein, UniProt Q06106 1-887)
chain: MSRIIVKGLPVYLTDDNLREHFTKRLRQKHSHQAVNGSGPDLITDVKILRDRNGESRRFGFIGYRNEEDAFDAVEYFNGSFINTSKIEVSMAKSFADPRVPQPMKEKRREALKRFREKEEKLLQEENRKKKKVDENKHSNIDDEIRKNKQLQEFMETMKPSSQVTSWEKVGIDKSIEDEKLKREEEDSSVQGNSLLAHALALKEENNKDEAPNLVIENESDDEYSALNRNRDEDQEDAGEEEKMISISNLKDTDIGLVNDDANSDEKENEKRRNLAQDEKVSDLDWFKQRRVRIKESEAETREKSSSYATEQNESLDTKKEEQPERAVPQKTDEELAIEKINQTGRLFLRNILYTSKEEDFRKLFSPFGELEEVHVALDTRTGQSKGFAYVLFKDSKNAVNAYVELDKQIFQGRLLHILPGEEKKSHRLDEFDLKNMPLKKQKELKRKAAASRQTFSWNSLYMNQDAVLGSVAAKLGLEKSQLIDAENSSSAVKQALAEAHVIGDVRKYFESKGVDLTKFSQLKSTNQRDDKVILVKNFPFGTTREELGEMFLPYGKLERLLMPPAGTIAIVQFRDTTSARAAFTKLSYKRFKDGIIYLERGPKDCFTKPAEADDLINNTSAKEEENPVEVKPSSNDLMEANKDVTEGSSNAHDEDVIDGPTVSIFIKNLNFSTTNQNLTDRFKVFTGFVVAQVKTKPDPKHQGKTLSMGFGFVEFRTKEQANAVIAAMDGTVIDGHKIQLKLSHRQASQSGNTKTKSNKKSGKIIVKNLPFEATRKDVFELFNSFGQLKSVRVPKKFDKSARGFAFVEFLLPKEAENAMDQLHGVHLLGRRLVMQYAEEDAVDAEEEIARMTKKVRKQVATNEMAALRNGGGRKKLDVDDEENEGF
As for B3, the binding entry in test [1] is reported as “binds”; in test [3], “no binding”; in test [2] it was “binds”.

B4: Gar1 (protein, UniProt P28007 1-205)
chain: MSFRGGNRGGRGGFRGGFRGGRTGSARSFQQGPPDTVLEMGAFLHPCEGDIVCRSINTKIPYFNAPIYLENKTQVGKVDEILGPLNEVFFTIKCGDGVQATSFKEGDKFYIAADKLLPIERFLPKPKVVGPPKPKNKKKRSGAPGGRGGASMGRGGSRGGFRGGRGGSSFRGGRGGSSFRGGSRGGSFRGGSRGGSRGGFRGGRR
Take B4: the binding entry in test [2] is given as “binds”.

B5: Dhr1, Q04217 1-1267 (protein)
chain: MGTYRKRFNEKARSGHMAKLKELKRIRNKQFTRQDENDERVENPDSAPAESSTTEPNANAEILEPLTEEEKKMKKRKLQELFTPKESKVSRLKKKRLDKFIEHQLKREERKTIIGKLQDYKIDTSLLTSSKRLGEGRQTKKEEFKEALSLERQGRGNEQTNEILYEEYEPKVWDEYGEGGSSEDDDGEDDFEASFGSMPKPTDNEEKKSSGFIDHRPAKFGGSGLSFGFSNIKVINKESKTPKKKYNWRQRVEMEELKKHGKEDEMDFDTTSEDDDEEEDQEEEDKMHPSENPLEEVESADSETGSEKFDQNDVANEFKDWANQEIKKLEGRDQELVTPTLNIDYKPIIRKEDLDDGLQEAYVPINENSTRKAFYVEVSRSDEIQKARIQLPVFGEEHKIMEAIHHNDVVIICGETGSGKTTQVPQFLYEAGFGAEDSPDYPGMVGITQPRRVAAVSMAERVANELGDHGHKVGYQIRFDSTAKEDTKVKFMTDGVLLREMMHDFKLTKYSSIIIDEAHERNINTDILIGMLSRCVRLRAKLHKENPIEHKKLKLIIMSATLRVSDFSENKTLFPIAPPVLQVDARQFPVSIHFNRRTAFNYTDEAFRKTCKIHQKLPPGAILVFLTGQQEITHMVKRLRKEFPFKKNSKYNKDLETPVSKMGINSKTTDLEAEDIDFSVQVIDQDKFKSAIRYEEDEGNSGNGEDEEDEEEEGFEEVLTEGQTANDPLYVLPLYSLLPTKEQMRVFQKPPQGSRLCIVATNVAETSLTIPGVRYVVDSGRSKERKYNESNGVQSFEVGWVSKASANQRSGRAGRTGPGHCYRLYSSAVFEHDFEQFSKPEILRMPVESIVLQMKSMAIHNIINFPFPTPPDRVALSKAIQLLQYLGALDNKEMITEDGKKMSLFPLSPRFSKMLLVSDEKACLPYIVAIVSALSVGDPFINEFELGINEISRKPNPDENLDDKIREHDESTPGMDPELKKELRSKFYKSRSQFSKLDKFSDVFRLLSVVSAMDYVPKEQKEIFMKKNFLRGKLMEEIVKLRKQLMYIIKSNTSKENIAVVIRNEDLKSDIPSVIQIKLLKQMICAGFVDHVAVRADVLFPDDAKITNRTSIINIPYIPVLATRTPNIEDCFVYIHPTSILNNLGEMPPKYMLYYSLHLGGNNKTRMNTLCDIASTPLANIARKGLLLTYSKPLTGQGLKTVNLSPTERYCYVVPRFGSTVDNDLKIGWDLNPIAVHQKKQKGQWTVIKFITRKGFQTITGEEKEKK
On to B5, for which the binding entry in test [4] is recorded as “binds”.

B6: Dhr1 (protein, UniProt Q04217 1-1267)
chain: MGTYRKRFNEKARSGHMAKLKELKRIRNKQFTRQDENDERVENPDSAPAESSTTEPNANAEILEPLTEEEKKMKKRKLQELFTPKESKVSRLKKKRLDKFIEHQLKREERKTIIGKLQDYKIDTSLLTSSKRLGEGRQTKKEEFKEALSLERQGRGNEQTNEILYEEYEPKVWDEYGEGGSSEDDDGEDDFEASFGSMPKPTDNEEKKSSGFIDHRPAKFGGSGLSFGFSNIKVINKESKTPKKKYNWRQRVEMEELKKHGKEDEMDFDTTSEDDDEEEDQEEEDKMHPSENPLEEVESADSETGSEKFDQNDVANEFKDWANQEIKKLEGRDQELVTPTLNIDYKPIIRKEDLDDGLQEAYVPINENSTRKAFYVEVSRSDEIQKARIQLPVFGEEHKIMEAIHHNDVVIICGETGSGKTTQVPQFLYEAGFGAEDSPDYPGMVGITQPRRVAAVSMAERVANELGDHGHKVGYQIRFDSTAKEDTKVKFMTDGVLLREMMHDFKLTKYSSIIIDEAHERNINTDILIGMLSRCVRLRAKLHKENPIEHKKLKLIIMSATLRVSDFSENKTLFPIAPPVLQVDARQFPVSIHFNRRTAFNYTDEAFRKTCKIHQKLPPGAILVFLTGQQEITHMVKRLRKEFPFKKNSKYNKDLETPVSKMGINSKTTDLEAEDIDFSVQVIDQDKFKSAIRYEEDEGNSGNGEDEEDEEEEGFEEVLTEGQTANDPLYVLPLYSLLPTKEQMRVFQKPPQGSRLCIVATNVAETSLTIPGVRYVVDSGRSKERKYNESNGVQSFEVGWVSKASANQRSGRAGRTGPGHCYRLYSSAVFEHDFEQFSKPEILRMPVESIVLQMKSMAIHNIINFPFPTPPDRVALSKAIQLLQYLGALDNKEMITEDGKKMSLFPLSPRFSKMLLVSDEKACLPYIVAIVSALSVGDPFINEFELGINEISRKPNPDENLDDKIREHDESTPGMDPELKKELRSKFYKSRSQFSKLDKFSDVFRLLSVVSAMDYVPKEQKEIFMKKNFLRGKLMEEIVKLRKQLMYIIKSNTSKENIAVVIRNEDLKSDIPSVIQIKLLKQMICAGFVDHVAVRADVLFPDDAKITNRTSIINIPYIPVLATRTPNIEDCFVYIHPTSILNNLGEMPPKYMLYYSLHLGGNNKTRMNTLCDIASTPLANIARKGLLLTYSKPLTGQGLKTVNLSPTERYCYVVPRFGSTVDNDLKIGWDLNPIAVHQKKQKGQWTVIKFITRKGFQTITGEEKEKK
In the case of B6, the binding result in test [3] is “binds”.
